Experimental data from PubChem BioAssay AID2685 (National Center for Advancing Translational Sciences (NCATS), 2010).
The list shows a part of the results. The main result of the screen is listed elsewhere. These columns were measured beside it and carry no call. Most of these compounds were active or inconclusive in the main read-out, so they are no random draw. The note in brackets gives the kind of curve behind each potency; many fits are weak.

Assay: qHTS Assay for Lipid Storage Modulators in Drosophila S3 Cells;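 for cell number change: cells counted by Cell Tracker Red CMTPX staining in the red channel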
Details: BODIPY lipid droplet fluorescence, 18-24 h; for cell number change: measured here: cell count max response, cells fed with added oleic acid
Summary of the method: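 Drosophila S3 cells loaded with oleic acid (400 uM, as added) and compounds at several concentrations; lipid droplets imaged by 488-nm laser-scanning cytometry, 500–530 nm intensity and object ratio to cell channel. Percent activity normalized to 20 uM Triacsin C.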

[1] = measured here: lipid fluorescence (Fed channel) AC50, cells fed with added oleic acid
[2] = measured here: cell number channel AC50, cells fed with added oleic acid

Compound	cell number change [%]	AC50 [1]	AC50 [2]
O=C(OCc1nnc(-c2ccccc2)o1)c1ccc([N+](=O)[O-])s1	-12.2	14.6 µM [falling, partial curve]	–
C=CCOC(=O)C1=C(C)Nc2ncnn2C1c1cccs1 (centres undefined)	–	–	0.82 µM [rising, full curve]
COc1c(C)cc(Br)cc1C(=O)Nc1cccc(NC(=O)c2ccco2)c1	-32.2	1.46 µM [rising, partial curve]	–
CCN1C(=O)C(NC(C)=O)c2cc(Br)ccc21 (centres undefined)	-26.2	32.6 µM [falling, single point]	–
O=C1COc2ccc(C(=O)/C=C/c3ccccc3)cc2N1	5.68	4.11 µM [rising, partial curve, poor fit]	4.61 µM [rising, single point]
Cc1ccc(CNC(=O)CCC(=O)Nc2nnc(C)s2)cc1	-1.42	29.1 µM [rising, single point]	–
Cn1c(SCc2ccccc2)nc(C(F)(F)F)cc1=O	-45.6	29.1 µM [falling, single point]	14.6 µM [falling, partial curve]
COCCN(C(=O)CNC(=O)c1ccco1)C(C(=O)NC1CCCC1)c1ccccc1F (centres undefined)	–	0.116 µM [falling, single point]	–
CCc1ncc(CN2CCCC(C(=O)Nc3cccc(-c4ccc(F)cc4)c3)C2)cn1 (centres undefined)	–	18.4 µM [falling, single point]	–
CCCC(CCC)=NNC(=O)CN(Cc1ccccc1)S(=O)(=O)c1ccccc1	18.1	8.2 µM [rising, partial curve, poor fit]	–
CN(CC(=O)Nc1cc(Cl)ccc1C#N)C1CCS(=O)(=O)C1 (centres undefined)	17.9	29.1 µM [rising, single point]	–
CCOc1cc(/C=N/NC(=O)c2ccc(N(C)S(=O)(=O)c3ccccc3)cc2)ccc1OC	-34.3	16.4 µM [falling, partial curve, poor fit]	0.082 µM [falling, full curve, poor fit]
N/C(=N\c1nc2ccccc2o1)NC(=O)c1ccccc1NC(=O)c1ccccc1	–	0.731 µM [rising, single point]	–
CCCCOP(=O)(c1ccc(N(C)C)cc1)C(O)c1ccccc1F (centres undefined)	-8.9	–	–
CC(C)CCc1c(O)nc(SCC(C)C)[nH]c1=O	-26.8	20.6 µM [falling, partial curve]	–
Cc1ccccc1Nc1nc(N)nc(CSc2nncn2C)n1	–	0.326 µM [rising, full curve]	0.206 µM [rising, full curve]
O=C(CSc1nnc(-c2cc(-c3cccs3)nc3ccccc23)o1)NC1CCCCC1	-0.845	2.91 µM [rising, partial curve]	–
CSCCC(NS(=O)(=O)c1ccccc1F)C(=O)N1CC=C(c2ccccc2)CC1 (centres undefined)	79.8	18.4 µM [rising, partial curve]	11.6 µM [rising, partial curve]
Cc1nc2ccccc2n1CC(O)Cn1c2ccccc2c2ccccc21 (centres undefined)	-19.4	14.6 µM [rising, partial curve]	–

Single entries from above.
Value for `CCc1ncc(CN2CCCC(C(=O)Nc3cccc(-c4ccc(F)cc4)c3)C2)cn1` (centres undefined) under AC50 [1]: 18.4 µM [falling, single point]
Value for `C=CCOC(=O)C1=C(C)Nc2ncnn2C1c1cccs1` (centres undefined) under AC50 [2]: 0.82 µM [rising, full curve]

More compounds.

Compound	cell number change [%]	AC50 [1]	AC50 [2]
Cc1ccc(S(=O)(=O)CCc2nc3ccccc3[nH]2)cc1C	13	–	–
Cc1cccc(CSc2nnc(-c3ccco3)o2)c1	-36.9	–	–
C/C(Nc1cccc(F)c1)=C(/C#N)C(N)=O	32.3	–	29.1 µM [rising, single point]
Cc1nnc(SCC(=O)NC2CCCc3c2cnn3-c2ccccc2F)o1 (centres undefined)	5.51	–	1.64 µM [rising, partial curve, poor fit]
CC(C)Oc1ccc(C(=O)O)cc1	-1.1	0.58 µM [rising, single point]	–
CC1=CC(=O)OC1Cc1ccncc1 (centres undefined)	-3.26	0.291 µM [rising, full curve, poor fit]	–
Cc1ccc(OCCN2C(=O)C(=O)c3cc(C)ccc32)cc1	-44.4	16.4 µM [falling, single point]	20.6 µM [falling, single point]
O=C(CSc1nnc(CNC(=O)c2ccc(F)cc2)o1)NCc1ccc2c(c1)OCO2	21.2	–	0.0366 µM [rising, full curve, poor fit]
COc1ccccc1NC(=O)C1=C(C)Nc2nnnn2C1c1ccccc1OC (centres undefined)	3.28	29.1 µM [rising, single point]	–
O=C(NCc1ccncc1)C(=O)C1C(=O)Nc2ccccc21 (centres undefined)	1.21	0.13 µM [falling, full curve, poor fit]	–
COc1ccc2[nH]c(=O)c(CN(C)C(=O)c3ccncc3)cc2c1	-8.78	1.03 µM [falling, full curve, poor fit]	0.461 µM [falling, full curve]
C#CCSc1nc(N)c2c(n1)OC(N)=C(C#N)C2c1cccnc1 (centres undefined)	29.9	4.61 µM [rising, full curve]	1.64 µM [rising, full curve, poor fit]
O=C(Nc1c2c(nn1-c1ccc(F)cc1)CS(=O)C2)c1ccc2c(c1)OCO2 (centres undefined)	9.3	0.517 µM [rising, full curve, poor fit]	–
CCCN1CCN(CCNC(=O)Nc2cc(C)ccc2C)CC1	13.9	–	7.31 µM [rising, single point]
CSCC[C@H](NC(=O)OC(C)(C)C)C(=O)NCC1CCC(C(=O)O)CC1 (some centres undefined)	-16.8	–	–
CN(c1ccccc1)S(=O)(=O)c1cccc(NC(=O)c2ccc(=O)[nH]c2)c1	15.8	0.651 µM [rising, full curve, poor fit]	–
Cc1cc(C)c(C#N)c(SCC(=O)Nc2ccc(S(=O)(=O)Nc3ncccn3)cc2)n1	21.1	18.4 µM [falling, single point]	–
CCn1ncc(/C=N/NS(=O)(=O)c2ccc(Cl)cc2)c1C	-15.5	4.11 µM [rising, full curve, poor fit]	–
Cc1ccc(CNC(=O)c2ccc(S(=O)(=O)N3CCCCC3)cc2)cc1	191	–	–
